Measurements taken from US20250283871A1, “COMPOSITIONS AND METHODS FOR MODULATING THE INTERACTION BETWEEN SS18-SSX FUSION ONCOPROTEIN AND NUCLEOSOMES” (Dana-Farber Cancer Institute, Inc., priority 2020, published 2025).

System: BAF complex subunits and histone proteins
Test: Mass spectrometry proteomics of purified HA-SS18 WT and HA-SS18-SSX1 complexes (Tables 5A-5E)
Set-up: species or system human
Details: HEK-293T; for Total (total peptides) / Unique (unique peptides): HA-SS18SSX1_CHR_peptides: protein identified in the HA-SS18-SSX1 purification from solubilized chromatin (CHR)
[1] = HA-SS18WT_CHR_peptides: HA-SS18 WT purification from nuclease-treated solubilized chromatin (CHR), label = protein identified
[2] = HA-SS18WT_NE_peptides: proteins co-purified with HA-SS18 WT from nuclear extract (NE)

Molecule | Total (total peptides) | Unique (unique peptides) | Total (peptides) [1] | Unique (peptides) [1] | Total (peptides) [2] | Unique (peptides) [2]
AQR (protein, UniProt O60306 1-1485, looked up) RNA helicase aquarius: MAAPAQPKKIVAPTVSQINAEFVTQLACKYWAPHIKKKSPFDIKVIEDIYEKEIVKSRFAIRKIMLLEFSQYLENYLWMNYSPEVSSKAYLMSICCMVNEKFRENVPAWEIFKKKPDHFPFFFKHILKAALAETDGEFSLHEQTVLLLFLDHCFNSLEVDLIRSQVQQLISLPMWMGLQLARLELELKKTPKLRKFWNLIKKNDEKMDPEAREQAYQERRFLSQLIQKFISVLKSVPLSEPVTMDKVHYCERFIELMIDLEALLPTRRWFNTILDDSHLLVHCYLSNLVRREEDGHLFSQLLDMLKFYTGFEINDQTGNALTENEMTTIHYDRITSLQRAAFAHFPELYDFALSNVAEVDTRESLVKFFGPLSSNTLHQVASYLCLLPTLPKNEDTTFDKEFLLELLVSRHERRISQIQQLNQMPLYPTEKIIWDENIVPTEYYSGEGCLALPKLNLQFLTLHDYLLRNFNLFRLESTYEIRQDIEDSVSRMKPWQSEYGGVVFGGWARMAQPIVAFTVVEVAKPNIGENWPTRVRADVTINLNVRDHIKDEWEGLRKHDVCFLITVRPTKPYGTKFDRRRPFIEQVGLVYVRGCEIQGMLDDKGRVIEDGPEPRPNLRGESRTFRVFLDPNQYQQDMTNTIQNGAEDVYETFNIIMRRKPKENNFKAVLETIRNLMNTDCVVPDWLHDIILGYGDPSSAHYSKMPNQIATLDFNDTFLSIEHLKASFPGHNVKVTVEDPALQIPPFRITFPVRSGKGKKRKDADVEDEDTEEAKTLIVEPHVIPNRGPYPYNQPKRNTIQFTHTQIEAIRAGMQPGLTMVVGPPGTGKTDVAVQIISNIYHNFPEQRTLIVTHSNQALNQLFEKIMALDIDERHLLRLGHGEEELETEKDFSRYGRVNYVLARRIELLEEVKRLQKSLGVPGDASYTCETAGYFFLYQVMSRWEEYISKVKNKGSTLPDVTEVSTFFPFHEYFANAPQPIFKGRSYEEDMEIAEGCFRHIKKIFTQLEEFRASELLRSGLDRSKYLLVKEAKIIAMTCTHAALKRHDLVKLGFKYDNILMEEAAQILEIETFIPLLLQNPQDGFSRLKRWIMIGDHHQLPPVIKNMAFQKYSNMEQSLFTRFVRVGVPTVDLDAQGRARASLCNLYNWRYKNLGNLPHVQLLPEFSTANAGLLYDFQLINVEDFQGVGESEPNPYFYQNLGEAEYVVALFMYMCLLGYPADKISILTTYNGQKHLIRDIINRRCGNNPLIGRPNKVTTVDRFQGQQNDYILLSLVRTRAVGHLRDVRRLVVAMSRARLGLYIFARVSLFQNCFELTPAFSQLTARPLHLHIIPTEPFPTTRKNGERPSHEVQIIKNMPQMANFVYNMYMHLIQTTHHYHQTLLQLPPAMVEEGEEVQNQETELETEEEAMTVQADIIPSPTDTSCRQETPAFQTDTTPSETGATSTPEAIPALSETTPTVVGAVSAPAEANTPQDATSAPEETK | 14 | 12 | 7 | 6 | 1 | 1
AATF (protein, UniProt Q9NY61 2-560, looked up) Protein AATF: AGPQPLALQLEQLLNPRPSEADPEADPEEATAARVIDRFDEGEDGEGDFLVVGSIRKLASASLLDTDKRYCGKTTSRKAWNEDHWEQTLPGSSDEEISDEEGSGDEDSEGLGLEEYDEDDLGAAEEQECGDHRESKKSRSHSAKTPGFSVQSISDFEKFTKGMDDLGSSEEEEDEESGMEEGDDAEDSQGESEEDRAGDRNSEDDGVVMTFSSVKVSEEVEKGRAVKNQIALWDQLLEGRIKLQKALLTTNQLPQPDVFPLFKDKGGPEFSSALKNSHKALKALLRSLVGLQEELLFQYPDTRYLVDGTKPNAGSEEISSEDDELVEEKKQQRRRVPAKRKLEMEDYPSFMAKRFADFTVYRNRTLQKWHDKTKLASGKLGKGFGAFERSILTQIDHILMDKERLLRRTQTKRSVYRVLGKPEPAAQPVPESLPGEPEILPQAPANAHLKDLDEEIFDDDDFYHQLLRELIERKTSSLDPNDQVAMGRQWLAIQKLRSKIHKKVDRKASKGRKLRFHVLSKLLSFMAPIDHTTMNDDARTELYRSLFGQLHPPDEGHGD | 14 | 10 | 8 | 7 | – | –
